These are yes or no findings as the source states them, for the method shown. In cells and extracts the contact can be indirect. Here binding means that the protein was enriched with, or labelled near, the bait; the list need not be complete.

This experiment concerns the target T1, GST-MPP2-SH3GK (mouse) (UniProt Q9WV34).
T1 sequence: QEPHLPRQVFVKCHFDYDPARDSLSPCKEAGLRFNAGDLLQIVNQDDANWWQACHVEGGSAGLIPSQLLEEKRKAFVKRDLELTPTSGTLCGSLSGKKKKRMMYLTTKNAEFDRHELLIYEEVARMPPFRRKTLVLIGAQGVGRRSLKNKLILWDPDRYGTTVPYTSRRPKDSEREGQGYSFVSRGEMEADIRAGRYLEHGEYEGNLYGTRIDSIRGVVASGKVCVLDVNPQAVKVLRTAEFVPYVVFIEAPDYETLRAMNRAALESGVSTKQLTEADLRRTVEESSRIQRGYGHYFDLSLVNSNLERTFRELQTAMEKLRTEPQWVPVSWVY
The experiment can be described thus: affinity purification with mass spectrometry.
As for “endogenous GABAA receptor subunit α4 (from UniProt P28471 36-552)”, the binding result is listed as “binds”.
As for “endogenous GABAA α1 from rat brain crude synaptosomes (from UniProt P62813 28-455) (receptor)”, the binding result is given as “binds”.
“endogenous GABAA receptor subunit β3 (from UniProt P63079 26-473)”: the binding result is recorded as “binds”.
For “endogenous GABAA receptor subunit β2 (from UniProt P63138 26-474)”, the binding result is “binds”.
